Record: PubChem BioAssay AID1259308 (NCATS, 2017)
In all, the deposit lists about 59,000 reagents; shown is an unselected part. About 1,510 of them (2.6%) count as active. 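Calls use total luciferase alone and ignore viability, so some active siRNAs may act by altering cell number.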 The numbers tell different reagents against one gene apart.

Test: 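Knock-downs that increase output of a recombinant reporter protein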 (primary screen)
System: human HEK293 embryonic kidney cells stably expressing firefly luciferase (HEK-CMV-Luc2-Hygro)
Reagents: single siRNA against human genes, 0.8 pmol siRNA per well
Time to read-out: 72 h
Measured: 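Luciferase light (ONE-Glo) measured on one replicate plate set and viability (CellTiter-Glo) on the other, scaled to a negative control siRNA, with robust z-scores and luciferase per cell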
Reading the numbers: total luciferase, z-score and total luciferase, % of control: higher = more reporter protein produced; luciferase per cell, z-score: higher = more reporter output per viable cell; viable cells, % of control: higher = more viable cells
Rule for the call: 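An siRNA counts as active if its total luciferase robust z-score exceeds 3; genes with two or more such siRNAs out of three were retested with fresh siRNAs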
Meaning of the calls: active = raised luciferase; inactive = no rise

The first 6 entries, ahead of the listing:
no.	Gene	reagent no.	total luciferase, z-score	total luciferase, % of control	luciferase per cell, z-score	viable cells, % of control	call
1	SCIMP (SLP adaptor and CSK interacting membrane protein)	1	-1.73	47.5	-1.57	80.3	inactive
2	SCIMP (SLP adaptor and CSK interacting membrane protein)	2	0.897	99.7	1.44	76.2	inactive
3	SCIMP (SLP adaptor and CSK interacting membrane protein)	3	-0.518	71.6	-0.716	96.6	inactive
4	TAF3 (TATA-box binding protein associated factor 3)	1	1.33	108	0.602	103	inactive
5	TAF3 (TATA-box binding protein associated factor 3)	2	3.46	151	2.17	95	active
6	TAF3 (TATA-box binding protein associated factor 3)	3	0.576	93.3	2.6	52.5	inactive

The listing, from the start:
no.	Gene	reagent no.	total luciferase, z-score	total luciferase, % of control	luciferase per cell, z-score	viable cells, % of control	call
1	SCIMP (SLP adaptor and CSK interacting membrane protein)	1	-1.73	47.5	-1.57	80.3	inactive
2	SCIMP (SLP adaptor and CSK interacting membrane protein)	2	0.897	99.7	1.44	76.2	inactive
3	SCIMP (SLP adaptor and CSK interacting membrane protein)	3	-0.518	71.6	-0.716	96.6	inactive
4	TAF3 (TATA-box binding protein associated factor 3)	1	1.33	108	0.602	103	inactive
5	TAF3 (TATA-box binding protein associated factor 3)	2	3.46	151	2.17	95	active
6	TAF3 (TATA-box binding protein associated factor 3)	3	0.576	93.3	2.6	52.5	inactive
7	DPF1 (double PHD fingers 1)	1	2.25	127	1.38	98.5	inactive
8	DPF1 (double PHD fingers 1)	2	1.11	104	0.161	111	inactive
9	DPF1 (double PHD fingers 1)	3	-0.204	77.8	-0.278	93.6	inactive
10	PRMT1 (protein arginine methyltransferase 1)	1	-0.849	65	-0.233	77.2	inactive
11	PRMT1 (protein arginine methyltransferase 1)	2	-0.706	67.9	-1.05	100	inactive
12	PRMT1 (protein arginine methyltransferase 1)	3	0.698	95.8	0.927	83.8	inactive
13	CKS1B (CDC28 protein kinase regulatory subunit 1B)	1	3.27	147	1.34	115	active
14	CKS1B (CDC28 protein kinase regulatory subunit 1B)	2	-0.14	79.1	-0.39	97.9	inactive
15	CKS1B (CDC28 protein kinase regulatory subunit 1B)	3	0.0894	83.7	0.0335	92.7	inactive
16	ACAP1 (ArfGAP with coiled-coil, ankyrin repeat and PH domains 1)	1	-0.126	79.4	0.202	84.1	inactive
17	ACAP1 (ArfGAP with coiled-coil, ankyrin repeat and PH domains 1)	2	-0.636	69.2	-0.549	89.4	inactive
18	ACAP1 (ArfGAP with coiled-coil, ankyrin repeat and PH domains 1)	3	-0.138	79.1	-0.464	99.9	inactive
19	FAM186B (family with sequence similarity 186 member B)	1	1.47	111	1.1	92.8	inactive
20	FAM186B (family with sequence similarity 186 member B)	2	-0.282	76.3	-0.528	98	inactive
21	FAM186B (family with sequence similarity 186 member B)	3	-0.142	79.1	-0.872	111	inactive
22	PLEKHN1 (pleckstrin homology domain containing N1)	1	-0.138	79.1	-0.701	106	inactive
23	PLEKHN1 (pleckstrin homology domain containing N1)	2	-0.104	79.8	0.15	85.8	inactive
24	PLEKHN1 (pleckstrin homology domain containing N1)	3	-1.14	59.1	-0.773	81	inactive
25	RBFA (ribosome binding factor A)	1	1.25	107	1.76	75.1	inactive
26	RBFA (ribosome binding factor A)	2	0.354	88.9	0.128	96.1	inactive
27	RBFA (ribosome binding factor A)	3	0.0583	83	-0.189	97.5	inactive
28	GYPA (glycophorin A (MNS blood group))	1	0.886	99.5	-0.0419	112	inactive
29	GYPA (glycophorin A (MNS blood group))	2	0.024	82.4	-0.00675	92.2	inactive
30	GYPA (glycophorin A (MNS blood group))	3	0.982	101	0.664	95.1	inactive
31	NBPF22P (NBPF member 22, pseudogene)	1	-0.174	78.4	0.0446	86.6	inactive
32	NBPF22P (NBPF member 22, pseudogene)	2	0.323	88.3	1.93	59.4	inactive
33	NBPF22P (NBPF member 22, pseudogene)	3	-0.98	62.4	-0.298	75.4	inactive
34	FAM177A1 (family with sequence similarity 177 member A1)	1	0.498	91.8	0.197	97.4	inactive
35	FAM177A1 (family with sequence similarity 177 member A1)	2	0.165	85.2	0.21	90	inactive
36	FAM177A1 (family with sequence similarity 177 member A1)	3	0.719	96.2	0.537	93.3	inactive
37	LOC728688 (ubiquitin like with PHD and ring finger domains 1 pseudogene)	1	-0.929	63.4	-1.16	96.2	inactive
38	LOC728688 (ubiquitin like with PHD and ring finger domains 1 pseudogene)	2	-2.07	40.8	-1.73	71.9	inactive
39	LOC728688 (ubiquitin like with PHD and ring finger domains 1 pseudogene)	3	1.6	114	2.4	67.4	inactive
40	LINC02167 (long independently transcribed non-coding RNA 2167)	1	0.844	98.7	0.268	103	inactive
41	LINC02167 (long independently transcribed non-coding RNA 2167)	2	0.464	91.1	-0.403	113	inactive
42	LINC02167 (long independently transcribed non-coding RNA 2167)	3	-0.595	70.1	-0.459	88.3	inactive
43	IGSF21 (immunoglobin superfamily member 21)	1	-0.0552	80.8	-0.599	106	inactive
44	IGSF21 (immunoglobin superfamily member 21)	2	-0.183	78.2	0.0135	87.1	inactive
45	IGSF21 (immunoglobin superfamily member 21)	3	0.602	93.9	0.515	91.6	inactive
46	OR13D1 (olfactory receptor family 13 subfamily D member 1)	1	-2.65	29.1	-2.38	60.9	inactive
47	OR13D1 (olfactory receptor family 13 subfamily D member 1)	2	-1.67	48.6	-1.38	78	inactive
48	OR13D1 (olfactory receptor family 13 subfamily D member 1)	3	0.0741	83.4	0.375	84.4	inactive
49	SHANK1 (SH3 and multiple ankyrin repeat domains 1)	1	0.284	87.5	0.171	93.5	inactive
50	SHANK1 (SH3 and multiple ankyrin repeat domains 1)	2	-0.39	74.1	-0.126	85.6	inactive
51	SHANK1 (SH3 and multiple ankyrin repeat domains 1)	3	-0.686	68.2	-0.752	93	inactive
52	TRAT1 (T cell receptor associated transmembrane adaptor 1)	1	-0.452	72.9	-0.438	91.4	inactive
53	TRAT1 (T cell receptor associated transmembrane adaptor 1)	2	3.53	152	2.8	81.2	active
54	TRAT1 (T cell receptor associated transmembrane adaptor 1)	3	-0.786	66.3	-1.17	101	inactive
55	LBHD1 (LBH domain containing 1)	1	-0.274	76.4	-0.0867	87.4	inactive
56	LBHD1 (LBH domain containing 1)	2	0.703	95.9	0.115	104	inactive
57	LBHD1 (LBH domain containing 1)	3	-0.627	69.4	0.00755	77.4	inactive
58	GZMM (granzyme M)	1	-0.545	71.1	-1.05	105	inactive
59	GZMM (granzyme M)	2	0.226	86.4	-0.243	103	inactive
60	GZMM (granzyme M)	3	-0.156	78.8	0.416	78.9	inactive
61	PNMT (phenylethanolamine N-methyltransferase)	1	0.409	90	-0.217	107	inactive
62	PNMT (phenylethanolamine N-methyltransferase)	2	2.34	128	2.11	82.3	inactive
63	PNMT (phenylethanolamine N-methyltransferase)	3	0.131	84.5	0.78	76.9	inactive
64	TSNAX (translin associated factor X)	1	2.31	128	0.836	115	inactive
65	TSNAX (translin associated factor X)	2	-0.251	76.9	-0.634	102	inactive
66	TSNAX (translin associated factor X)	3	2.08	123	1.52	92.1	inactive
67	SHISA3 (shisa family member 3)	1	-0.0106	81.7	-0.357	100	inactive
68	SHISA3 (shisa family member 3)	2	2.33	128	1.73	90.7	inactive
69	SHISA3 (shisa family member 3)	3	-0.248	76.9	-0.563	99.7	inactive
70	XKR7 (XK related 7)	1	0.181	85.5	0.643	80.6	inactive
71	XKR7 (XK related 7)	2	-0.287	76.2	-0.0975	87.3	inactive
72	XKR7 (XK related 7)	3	0.849	98.8	0.698	91.8	inactive
73	LSS (lanosterol synthase)	1	-2.31	36	-2.15	70.8	inactive
74	LSS (lanosterol synthase)	2	-0.354	74.9	-0.238	89.1	inactive
75	LSS (lanosterol synthase)	3	-0.312	75.7	0.899	66.7	inactive
